Values joined by “and” are separate entries in the source; they are usually repeats but may differ in a detail not shown here. Equal entries are not always repeated. Out of some 400,000 compounds screened, about 13,000 (3.2%) were called active. Inconclusive means that the source gave no clear call. Such entries were picked first, then a sample of the others. Calls come from the whole dose curve; as a rule, active = well fitted cell-killing curve with a large enough effect; inconclusive = small, poorly fitted or top-dose-only effect, or effect the other way; inactive = flat fitted curve, though single readings scatter. Potencies beside an inconclusive call are fits to weak or partial responses and may not hold up.
Assay: qHTS assay for MDR1-selective chemotherapeutics: Primary screen using the drug-selected MDR subline cells KB-V1; note: nearly all actives have a fitted effect of over 60% in size
Conditions: KB-V1 MDR cells viability, CellTiter-Glo, 72 h; activity change, negative = cytotoxicity: at 46.1 µM (top of the series)
Procedure, shortened: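 Potencies derive from concentration-effect curves fitted to normalized luminescence (CellTiter-Glo) of KB-V1 cells treated for 72 h at 37 degrees C in phenol-red-free DMEM containing 10% FBS.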
% is set by controls: 0 for no effect and ±100 for the full control effect; potency is the fitted concentration of half-maximal effect.

Structure (SMILES)	Potency	activity change, negative = cytotoxicity
CCN(CCO)Cc1csc2c(Br)cccc12	inconclusive: 16.4 µM [cytotoxic, partial curve]	–
CCCCc1ccccc1NC(=S)NC1CCCC1	inconclusive: 32.6 µM [cytotoxic, single point]	–
CCOC(=O)C1(Cc2cccc(OC)c2)CCN(Cc2ccccc2OC)CC1	inconclusive: 6.51 µM [cytotoxic, partial curve]	–
CC1(c2nnnn2Cc2ccccc2)CCC(=O)N1Cc1ccco1 (configuration not stated)	inactive	–
CC(C)n1nnnc1-c1cccc(Cl)c1	inconclusive: 29.1 µM [cytotoxic, single point]	–
CCc1nn2c(=O)cc(COC(=O)c3ccc(SC)cc3OC)nc2s1	active: 10.3 µM	–
O=C(CN(C(=O)c1ccc(Cl)cc1)C1CCCCC1)Nc1ccc(Cl)c([N+](=O)[O-])c1	active: 14.6 µM	–
Fc1ccc(CNC(=S)NC2CCCCCC2)cc1	inconclusive: 23.1 µM [cytotoxic, single point]	–
O=C(C[n+]1ccccc1)N/N=C/c1ccccc1F	inactive	–
O=C(CSc1nc2ccc([N+](=O)[O-])cc2[nH]1)NC1CCCCCC1	active: 13 µM	–
Cc1cnc(CNC(=O)C2CCC(=O)N(CCc3ccc(Cl)cc3)C2)cn1 (configuration not stated)	inconclusive: 29.1 µM [rising, single point]	–
S=C(NC1CCCCC1)N1CCn2cccc2C1c1cccnc1 (configuration not stated)	inconclusive: 20.6 µM [cytotoxic, single point]	–
COc1ccc(/C=C/C(=O)NNC(=O)c2ccncc2)c(OC)c1	inconclusive: 25.9 µM [rising, single point]	–
CCC(=NCCc1ccc(OC)c(OC)c1)C1=C(O)CC(C)(C)CC1=O	inconclusive: 16.4 µM [cytotoxic, single point]	–
Cn1nc(SCc2ccccc2)c(=O)n(C(c2ccccc2)c2ccccc2)c1=O	active: 20.6 µM	–
O=c1c2ccccc2nnn1Cc1ccc2ccccc2c1	inconclusive: 9.2 µM [cytotoxic, partial curve, poor fit]	–
CCc1c(C)nc2nncn2c1Nc1ccc(C(C)C)cc1	inconclusive: 23.1 µM [cytotoxic, partial curve, poor fit]	–
CC(c1nc2ccccc2[nH]1)n1c(=O)c(-c2cccnc2)nc2ccccc21 (configuration not stated)	inactive	–
CN(C)c1ccnc2sc(C(=O)c3ccccc3)c(N)c12	inactive	–
Cc1cc(O)c(CN(C)C)c2c1C(=O)/C(=C/c1ccco1)O2	inactive	–
COc1ccc(C(=O)Nc2ccncc2)cc1S(=O)(=O)N1CCOCC1	inconclusive: 0.206 µM [rising, full curve, poor fit]	–
CCCCCCCCN1C(=O)[C@H](CC(=O)NCc2ccc(C)o2)C[C@@]2(C(=O)OC)CC(C)(C)CC=C12	inconclusive: 14.6 µM [cytotoxic, partial curve]	–
OCCCN=C1CCCc2c1[nH]c1ccc(Cl)cc21	active: 1.46 µM	–
CNc1ccccc1C(=O)OCC(=O)N1CCN(c2ccc(OC)cc2)CC1	inconclusive: 20.6 µM [cytotoxic, single point]	–

Single values from the entries so far.
For Potency, CCCCc1ccccc1NC(=S)NC1CCCC1 is listed with inconclusive: 32.6 µM [cytotoxic, single point]
For Potency, CC1(c2nnnn2Cc2ccccc2)CCC(=O)N1Cc1ccco1 (configuration not stated) is listed with inactive
For Potency, Cc1cnc(CNC(=O)C2CCC(=O)N(CCc3ccc(Cl)cc3)C2)cn1 (configuration not stated) is listed with inconclusive: 29.1 µM [rising, single point]
For Potency, CNc1ccccc1C(=O)OCC(=O)N1CCN(c2ccc(OC)cc2)CC1 is listed with inconclusive: 20.6 µM [cytotoxic, single point]

The results go on.

Structure (SMILES)	Potency	activity change, negative = cytotoxicity
COc1ccc(N2C(=O)CC(N3CCN(S(=O)(=O)c4c(C)cc(C)cc4C)CC3)C2=O)cc1 (configuration not stated)	inconclusive: 16.4 µM [cytotoxic, single point]	–
Cc1ccc(NC(=O)CN2CCN(CCN=CC3=C(O)CC(c4ccc(C)cc4)CC3=O)CC2)cc1 (configuration not stated)	inactive	–
CC(=O)c1c(C)nc(-c2ccccc2)nc1NC(=O)Cc1ccccc1	inconclusive: 14.6 µM [cytotoxic, single point]	–
Cc1ccc(CNC(=O)c2ccc(-n3cnc4cccnc43)cc2)cc1	inconclusive: 11.6 µM [cytotoxic, partial curve, poor fit]	–
COc1ccc(-c2sc3cc(OC)ccc3c2-c2ccc(OCCN3CCCCC3)cc2)cc1	inconclusive: 20.6 µM [cytotoxic, single point]	–
CCCCC(=O)NC(c1ccc(Cl)cc1)c1ccc2cccnc2c1O (configuration not stated)	inconclusive: 29.1 µM [cytotoxic, partial curve, poor fit]	–
Cc1sc2ncn(CC(=O)Nc3c(F)cccc3F)c(=O)c2c1S(=O)(=O)N1CCC(C)CC1	inactive	–
Cc1ccc(C)c(NC(=O)COc2coc(CN3CCc4ccccc43)cc2=O)c1	inconclusive: 29.1 µM [cytotoxic, single point]	–
COc1cccc(CN2CCc3nc(SCC(=O)Nc4ccccc4)[nH]c(=O)c3C2)c1	inconclusive: 29.1 µM [rising, single point]	–
COc1ccc([N+](=O)[O-])cc1C(=O)Nc1ccc(Cc2ccncc2)cc1	inactive	–
Cc1cc(Nc2cccc(F)c2)n2nc(C)nc2n1	inactive	–
Clc1ccc(C(c2nnnn2C2CCCC2)N2CCSCC2)cc1 (configuration not stated)	inactive	–
Cn1c(N=Nc2ccccc2)nc2ccccc21	active: 8.2 µM	–
CC1CN(c2nc3c(c(=O)n(Cc4ccc(Cl)c(Cl)c4)c(=O)n3C)n2C)CC(C)O1 (configuration not stated)	active: 5.17 µM	–
CC1CCCN(CCCOc2ccc(Br)cc2Cl)C1 (configuration not stated)	inconclusive: 11.6 µM [cytotoxic, partial curve]	–
CC(C)(C)c1ccc(C(=O)N2CCC(C(=O)c3ccccc3)CC2)cc1	inactive	–
O=C1C=CCC(/C=C/c2ccccc2)O1 (configuration not stated)	inconclusive: 20.6 µM [cytotoxic, single point]	–
CC1(C(=O)Nc2nccs2)CCN1C(=O)CC(c1ccccc1)c1ccccc1 (configuration not stated)	inconclusive: 7.31 µM [cytotoxic, partial curve]	–
CCc1ccc(-c2nc(CS(=O)CC(=O)NCCN3CCCCCC3)c(C)o2)cc1 (configuration not stated)	inactive	–
CC(C)CN1CCC(=O)N([C@H](COc2ccccc2)c2ccccc2)CC1	inconclusive: 10.3 µM [cytotoxic, partial curve] and inconclusive: 16.4 µM [cytotoxic, single point]	–
CCOC(=O)c1ccc(Nc2ncnc3c2cnn3-c2cccc(Cl)c2)cc1	inactive	–
COc1cc(OC)cc(-c2ncc3ccccn23)c1	inconclusive: 29.1 µM [cytotoxic, single point]	–
Nc1cccc2c3c(oc12)CCCC3	–	inconclusive: -2.27%
Cc1cccc(C(=O)N2CCC(=O)N(C(COCc3ccc(Cl)cc3)Cc3ccccc3)CC2)c1 (configuration not stated)	inconclusive: 16.4 µM [cytotoxic, single point]	–

Structure (SMILES)	Potency	activity change, negative = cytotoxicity
COc1ccc(C(=O)N(c2ccc(OC)cc2)S(=O)(=O)c2cccs2)cc1	inconclusive: 20.6 µM [cytotoxic, single point]	–
N=c1c2c(ncn1Cc1ccco1)Oc1ccc3ccccc3c1C2c1ccccc1 (configuration not stated)	active: 7.31 µM	–
CC(C)(C)NC(=O)N1CCC(CO)(Cc2ccccc2Cl)CC1	inconclusive: 18.4 µM [cytotoxic, single point]	–
CC1(C(=O)Nc2cccc3ccccc23)CCN1C(=O)C1(c2ccccc2)CCCC1 (configuration not stated)	inactive	–
COc1ccc(C(c2nnnn2C2CCCC2)N2CCN(C/C=C/c3ccccc3)CC2)cc1 (configuration not stated)	inconclusive: 29.1 µM [cytotoxic, single point]	–
CC1Cc2cc(S(=O)(=O)NCc3ccccc3Cl)ccc2N1C(=O)C1CCC1 (configuration not stated)	inconclusive: 9.2 µM [cytotoxic, partial curve]	–
Cc1ccc(Nc2nc(N)nc(CN3CCN(Cc4ccc5c(c4)OCO5)CC3)n2)c(C)c1	inactive	–
COc1ccc2[nH]c(=O)c(CNc3cccc(C)c3)cc2c1	active: 5.8 µM	–
C=CCn1cccc(C(=O)Nc2ccc(C)c(Cl)c2)c1=O	inconclusive: 29.1 µM [cytotoxic, single point]	–
COc1cc(/C=C2\SC(=N)N(c3ccc(F)cc3)C2=O)ccc1O	inconclusive: 2.91 µM [cytotoxic, single point]	–
C=CCOc1ccc2nc(NC(=O)OC)[nH]c2c1	active: 1.16 µM	–
C=C1CCN([C@@H](Cc2ccccc2)C(=O)NCc2ccccc2)S(=O)(=O)c2ccccc21	inactive	–
CCOC(=O)Cn1nnnc1CN(Cc1ccccc1)Cc1cc2cc(CC)ccc2[nH]c1=O	inactive	–
S=c1[nH]cnc2sc(-c3ccccc3)cc12	inconclusive: 25.9 µM [cytotoxic, single point]	–
COc1cc(OC)c(C(=O)OCC(=O)N(Cc2ccccc2)C(C)(C)C)cc1OC	inconclusive: 4.11 µM [cytotoxic, partial curve]	–
Cc1ccccc1NS(=O)(=O)c1nnc(NC(=O)c2ccccc2C)s1	–	inconclusive: 28.6%
O=C(Nc1ncc(Cc2cc(Cl)ccc2Cl)s1)c1ccc([N+](=O)[O-])cc1	inconclusive: 29.1 µM [cytotoxic, single point]	–
Cc1cnc(C(=O)OC(C)C(=O)Nc2ccc(Oc3ccccc3)cc2)cn1 (configuration not stated)	inactive	–
CCn1c(=O)c(C(=O)NNS(=O)(=O)c2ccc(C)cc2)c(O)c2ccccc21	inconclusive: 29.1 µM [cytotoxic, single point]	–
Cc1ccc(-c2noc(CSc3nnc(CCc4ccccc4)n3-c3ccccc3)n2)cc1	inconclusive: 23.1 µM [cytotoxic, single point]	–
O=C(NCCc1ccccc1)C(=O)NCC1OCCN1S(=O)(=O)c1ccc(F)cc1 (configuration not stated)	inactive	–
CN(Cc1cccnc1)C(=O)CCCc1c[nH]c2ccccc12	inconclusive: 18.4 µM [cytotoxic, single point]	–
O=c1cc(CCc2ccccc2)oc2cccc(O)c12	inconclusive: 7.31 µM [rising, partial curve, poor fit]	–
CCN(Cc1ccccc1)C(=O)COc1cc(=O)n(CC)c2ccccc12	inconclusive: 11.6 µM [cytotoxic, partial curve]	–

Reference: PubChem BioAssay AID1347076 (National Center for Advancing Translational Sciences (NCATS), 2019)
